Experiment [1] deals with Flag-PTEN (phosphatase and tensin homolog deleted on chromosome ten) (UniProt P60484). The experiment in a line: co-IP; co-immunoprecipitation in 293T cells (Fig. S2); bait not told.
Experiment [2] deals with phosphatase and tensin homolog deleted on chromosome ten (PTEN), endogenous (human (endogenous in SW 1990 and HPAC)) (UniProt P60484). The experiment in a line: co-IP; co-immunoprecipitation (Fig. 7C); cells and bait not told; repeated three times.

Chains of the proteins cited; added tags and fusions are not shown.
UniProt Q8IWZ3: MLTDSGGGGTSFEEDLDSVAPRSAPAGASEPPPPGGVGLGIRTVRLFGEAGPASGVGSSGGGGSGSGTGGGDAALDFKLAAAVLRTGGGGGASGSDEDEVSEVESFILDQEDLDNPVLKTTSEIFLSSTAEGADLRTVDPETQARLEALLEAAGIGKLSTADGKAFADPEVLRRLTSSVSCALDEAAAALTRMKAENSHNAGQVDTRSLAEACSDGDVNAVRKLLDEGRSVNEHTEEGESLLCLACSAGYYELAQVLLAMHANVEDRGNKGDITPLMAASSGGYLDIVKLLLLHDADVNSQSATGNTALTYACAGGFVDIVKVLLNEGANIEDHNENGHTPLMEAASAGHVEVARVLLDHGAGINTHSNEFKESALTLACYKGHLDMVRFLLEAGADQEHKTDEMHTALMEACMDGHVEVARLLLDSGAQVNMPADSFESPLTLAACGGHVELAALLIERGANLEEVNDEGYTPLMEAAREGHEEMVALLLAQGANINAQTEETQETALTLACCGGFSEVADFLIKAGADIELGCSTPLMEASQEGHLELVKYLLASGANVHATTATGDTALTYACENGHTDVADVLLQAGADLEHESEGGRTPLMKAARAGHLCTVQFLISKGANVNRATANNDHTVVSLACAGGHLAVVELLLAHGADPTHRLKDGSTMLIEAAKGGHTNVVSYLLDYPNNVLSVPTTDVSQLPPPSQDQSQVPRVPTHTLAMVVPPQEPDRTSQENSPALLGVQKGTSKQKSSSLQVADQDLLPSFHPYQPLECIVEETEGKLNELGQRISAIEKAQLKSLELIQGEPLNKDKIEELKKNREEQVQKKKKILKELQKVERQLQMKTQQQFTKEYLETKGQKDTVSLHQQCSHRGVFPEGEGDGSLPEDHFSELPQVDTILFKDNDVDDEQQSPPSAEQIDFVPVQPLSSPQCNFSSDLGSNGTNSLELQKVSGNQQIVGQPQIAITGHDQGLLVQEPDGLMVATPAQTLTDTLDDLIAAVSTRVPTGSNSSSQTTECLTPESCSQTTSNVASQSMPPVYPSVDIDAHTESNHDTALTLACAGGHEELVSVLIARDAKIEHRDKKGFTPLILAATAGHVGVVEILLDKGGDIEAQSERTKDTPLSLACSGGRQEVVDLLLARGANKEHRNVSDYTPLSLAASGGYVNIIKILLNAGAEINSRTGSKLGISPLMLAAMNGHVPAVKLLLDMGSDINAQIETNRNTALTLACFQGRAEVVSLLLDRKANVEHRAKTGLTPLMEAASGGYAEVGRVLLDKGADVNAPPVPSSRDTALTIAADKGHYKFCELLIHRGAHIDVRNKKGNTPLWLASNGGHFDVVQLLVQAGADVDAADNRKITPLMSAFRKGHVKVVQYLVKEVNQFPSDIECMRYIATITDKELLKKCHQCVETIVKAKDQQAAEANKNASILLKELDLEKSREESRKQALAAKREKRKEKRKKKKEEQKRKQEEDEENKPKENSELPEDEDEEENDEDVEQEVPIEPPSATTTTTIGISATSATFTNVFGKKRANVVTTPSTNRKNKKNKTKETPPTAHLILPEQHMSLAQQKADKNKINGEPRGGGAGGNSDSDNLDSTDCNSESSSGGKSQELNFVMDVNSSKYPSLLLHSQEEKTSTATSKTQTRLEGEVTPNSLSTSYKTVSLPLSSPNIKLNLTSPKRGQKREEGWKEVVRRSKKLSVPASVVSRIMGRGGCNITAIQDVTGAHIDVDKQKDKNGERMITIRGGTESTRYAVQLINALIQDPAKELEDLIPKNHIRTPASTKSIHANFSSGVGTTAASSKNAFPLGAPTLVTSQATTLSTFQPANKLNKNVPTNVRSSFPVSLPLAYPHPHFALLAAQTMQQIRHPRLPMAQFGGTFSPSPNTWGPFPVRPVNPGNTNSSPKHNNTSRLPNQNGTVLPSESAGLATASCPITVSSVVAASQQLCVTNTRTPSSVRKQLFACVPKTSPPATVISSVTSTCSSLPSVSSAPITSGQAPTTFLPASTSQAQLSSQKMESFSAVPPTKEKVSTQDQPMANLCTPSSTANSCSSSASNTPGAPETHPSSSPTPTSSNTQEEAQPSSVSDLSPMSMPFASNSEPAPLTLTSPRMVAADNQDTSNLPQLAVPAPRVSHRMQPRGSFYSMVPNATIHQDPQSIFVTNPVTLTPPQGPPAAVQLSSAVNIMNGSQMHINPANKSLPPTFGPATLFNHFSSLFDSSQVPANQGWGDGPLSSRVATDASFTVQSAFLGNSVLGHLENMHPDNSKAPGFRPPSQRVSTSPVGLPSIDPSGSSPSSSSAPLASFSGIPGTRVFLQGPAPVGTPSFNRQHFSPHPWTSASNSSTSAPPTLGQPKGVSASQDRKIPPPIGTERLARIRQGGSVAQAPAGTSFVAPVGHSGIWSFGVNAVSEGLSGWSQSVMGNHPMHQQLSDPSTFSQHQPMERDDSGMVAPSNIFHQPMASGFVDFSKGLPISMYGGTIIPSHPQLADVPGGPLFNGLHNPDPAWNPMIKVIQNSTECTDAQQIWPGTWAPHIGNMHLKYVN

Results are given in words; binding and its absence hold for the method and conditions named. In cells and extracts the contact can be indirect. Some results given as binding are weak or reduced against the parent protein; the word gives no strength.

On to “ankyrin repeat and KH domain containing 1 (ANKHD1) (from UniProt Q8IWZ3 1-2542)”, for which the binding result in experiment [1] and in experiment [2] was “binds” throughout.

(Values after article PMC8895442.)
